Assay [1] has as its target CFP-tagged Sam68 (human (cDNA from HEK293T cells)) (UniProt Q07666). Put plainly: FRET or BRET; flow-cytometry-based FRET in living 293T cells co-transfected with CFP- and YFP-tagged proteins, analysed 48 h after transfection. A general note: BRET reads energy transfer from a luciferase to a nearby fluorophore.
Assay [2] addresses His-tagged Sam68 (Src-associated in mitosis, 68 kDa) (human (cDNA from HEK293T cells)) (UniProt Q07666). Put plainly: ELISA; only the target purified.
For assay [3] the target is unchanged. Put plainly: phage display bio-panning; 10 µg His-Sam68 or GST-Sam68 immobilised on magnetic M-270 epoxy beads; human SH3 phage library (296 domains as pVIII fusions), 1 h; 10 washes with PBS + 0.05 % Tween-20; elution at pH 2.2; 162 clones sequenced; only the target purified.

Sequences of proteins named here, by UniProt entry; tags and fusion partners are left off. Residues count along the entry.
UniProt P08631, residues 78-138: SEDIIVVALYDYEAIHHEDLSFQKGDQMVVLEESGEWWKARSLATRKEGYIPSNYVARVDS
UniProt P07947, residues 91-152: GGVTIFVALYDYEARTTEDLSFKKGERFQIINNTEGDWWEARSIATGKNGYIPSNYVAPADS
UniProt Q96B97, residues 1-58: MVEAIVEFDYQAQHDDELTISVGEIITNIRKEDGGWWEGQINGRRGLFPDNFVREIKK
UniProt P27986, residues 3-79: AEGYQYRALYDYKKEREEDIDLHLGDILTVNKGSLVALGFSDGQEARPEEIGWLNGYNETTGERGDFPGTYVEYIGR
UniProt Q9Y5X1, residues 1-62: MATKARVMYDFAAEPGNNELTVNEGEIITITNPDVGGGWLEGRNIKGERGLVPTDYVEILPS
UniProt P06241, residues 82-143: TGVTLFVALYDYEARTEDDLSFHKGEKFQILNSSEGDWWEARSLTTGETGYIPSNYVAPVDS
UniProt P07948, residues 63-123: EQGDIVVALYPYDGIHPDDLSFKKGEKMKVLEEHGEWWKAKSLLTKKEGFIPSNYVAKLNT

Binding data for 12 substances are collected here from paper PMC3379994, “Comprehensive Analysis of Interactions between the Src-Associated Protein in Mitosis of 68 kDa and the Human Src-Homology 3 Proteome” (PLoS ONE, 2012).

These are yes or no findings as the source states them, for the method shown. For some assays here: Binding seen in cells or lysates may run through a third protein. Some results given as binding are weak or reduced against the parent protein; the word gives no strength.

Take “YFP-tagged SH3 domain of Hck (from UniProt P08631 78-138) (domain or fragment)”: in assay [1], the binding result is reported as “binds”.

“SH3 domain from Hck, displayed on M13 phage (from UniProt P08631 78-138) (domain or fragment)”: the binding entry in assay [2] and in assay [3] was “binds” each time.

With “SH3 domain from Yes, displayed on M13 phage (from UniProt P07947 91-152) (domain or fragment)”, the binding result in assay [2] and in assay [3] was “binds” in each case.

Consider “SH3 domain #1 from Cbl-interacting 85 kDa protein (CIN85), displayed on M13 phage (from UniProt Q96B97 1-58) (domain or fragment)”, for which the binding entry in assay [3] is listed as “binds”.

Take “SH3 domain from p85α, displayed on M13 phage (from UniProt P27986 3-79) (domain or fragment)”: the binding result in assay [2] and in assay [3] was “binds” throughout.

Turning to “SH3 domain from Sorting nexin 9, displayed on M13 phage (from UniProt Q9Y5X1 1-62) (domain or fragment)”, in assay [3], the binding entry is reported as “binds”.

Take “SH3 domain from Fyn, displayed on M13 phage (from UniProt P06241 82-143) (domain or fragment)”: the binding result in assay [2] and in assay [3] was “binds” throughout.

On to “YFP-tagged SH3 domain of Fyn (from UniProt P06241 82-143) (domain or fragment)”, for which the binding result in assay [1] is recorded as “binds”.

On to “YFP-tagged SH3 domain of p85α (from UniProt P27986 3-79) (domain or fragment)”, for which, in assay [1], the binding entry is reported as “binds”.

With “SH3 domain from Lyn, displayed on M13 phage (from UniProt P07948 63-123) (domain or fragment)”, the binding result in assay [2] and in assay [3] was “binds” each time.

Regarding “YFP-tagged SH3 domain of Yes (from UniProt P07947 91-152) (domain or fragment)”, the binding result in assay [1] is given as “binds”.

Consider “YFP-tagged SH3 domain of Lyn (from UniProt P07948 63-123) (domain or fragment)”, for which, in assay [1], the binding result is recorded as “binds”.
